Results reported in article PMC3817697, “Building a pseudo-atomic model of the anaphase-promoting complex” (Acta Crystallographica Section D: Biological Crystallography, 2013).
These are yes or no findings as the source states them, for the method shown. Some results given as binding are weak or reduced against the parent protein; the word gives no strength.

Target: T1, Cdc16 of the Cdc16–Cdc26 crystals (UniProt P41889)
T1 sequence: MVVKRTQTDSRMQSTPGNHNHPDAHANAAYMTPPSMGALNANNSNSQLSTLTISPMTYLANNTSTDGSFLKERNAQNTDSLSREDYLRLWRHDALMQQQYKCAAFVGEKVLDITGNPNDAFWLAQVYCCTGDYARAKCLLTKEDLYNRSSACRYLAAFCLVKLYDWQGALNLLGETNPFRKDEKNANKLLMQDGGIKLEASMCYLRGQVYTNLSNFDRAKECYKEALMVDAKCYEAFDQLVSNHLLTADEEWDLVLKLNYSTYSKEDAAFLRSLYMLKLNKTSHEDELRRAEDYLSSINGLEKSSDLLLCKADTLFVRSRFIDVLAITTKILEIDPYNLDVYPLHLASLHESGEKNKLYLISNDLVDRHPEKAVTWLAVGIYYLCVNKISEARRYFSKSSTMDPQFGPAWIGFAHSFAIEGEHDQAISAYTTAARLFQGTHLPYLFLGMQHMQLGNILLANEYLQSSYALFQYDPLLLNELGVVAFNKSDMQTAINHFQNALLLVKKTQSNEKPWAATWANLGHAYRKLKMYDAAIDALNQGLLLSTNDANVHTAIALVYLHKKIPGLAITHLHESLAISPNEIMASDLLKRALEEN
Assay: crystal structure; Cdc16–Cdc26 crystals (previously determined by SAD) phased by molecular replacement (Phaser) with the Cdc16–Cdc26-assigned EM density of S. pombe APC/C as search model; diffraction data cut to 4–30 Å; phases extended from 10 to 5 Å; both purified

- binding: binds
B1: Cdc26 (Hcn1) subunit of recombinant S. pombe APC/C (natural protein, UniProt O13916 1-80, looked up)
chain: MLRRNPTAIQITAEDVLAYDEEKLRQTLDSESTTEEALQKNEESTRLSPEKKKIIRERRIGITQIFDSSMHPSQGGAAQS
notes: Cdc26 (S. pombe name Hcn1), TPR accessory subunit of the S. pombe anaphase-promoting complex; Subunit within the recombinant S. pombe APC/C used for cryo-EM; source: recombinant S. pombe APC/C
